Some entries share one result that the patent states for a list of compounds.
Tests used:
Format in all cases: in vivo
[1] = test system: boll weevil (Anthonomus grandis); assay: Action on boll weevil (Anthonomus grandis), microtiter plate diet test; conditions: 800 ppm; egg and larval mortality after 5 days
Protocol: For evaluating control of boll weevil (Anthonomus grandis) the test unit consisted of 96-well-microtiter plates containing an insect diet and 5-10 A. grandis eggs.
The compounds were formulated using a solution containing 75% (v/v) water and 25% (v/v) DMSO. Different concentrations of formulated compounds were sprayed onto the insect diet at 5 μl, using a custom built micro atomizer, at two replications.
After application, microtiter plates were incubated at about 25+1° C. and about 75+5% relative humidity for 5 days. Egg and larval mortality was then visually assessed.

[2] = test system: Diamond back moth (Plutella xylostella); assay: Action on diamond back moth (Plutella xylostella), cabbage leaf dip; conditions: 500 ppm; 3rd instar larvae on dipped cabbage leaves, 72 hours after treatment
Protocol: The active compound is dissolved at the desired concentration in a mixture of 1:1 (v/v) distilled water: acetone. Surfactant (Kinetic® HV) is added at a rate of 0.01% (v/v). The test solution is prepared at the day of use.
Leaves of cabbage were dipped in test solution and air-dried. Treated leaves were placed in petri dishes lined with moist filter paper and inoculated with ten 3rd instar larvae. Mortality was recorded 72 hours after treatment. Feeding damages were also recorded using a scale of 0-100%.

[3] = test system: Southern armyworm (Spodoptera eridania), 2nd instar larvae; assay: Action on southern armyworm (Spodoptera eridania), 2nd instar larvae, sprayed lima bean plants; conditions: 300 ppm; 2nd instar larvae on lima bean plants, 4 days after treatment
Protocol: The active compounds were formulated by a Tecan liquid handler in 100% cyclohexanone as a 10,000 ppm solution supplied in tubes. The 10,000 ppm solution was serially diluted in 100% cyclohexanone to make interim solutions. These served as stock solutions for which final dilutions were made by the Tecan in 50% acetone:50% water (v/v) into 10 or 20 ml glass vials. A nonionic surfactant (Kinetic®) was included in the solution at a volume of 0.01% (v/v). The vials were then inserted into an automated electrostatic sprayer equipped with an atomizing nozzle for application to plants/insects.
Lima bean plants (variety Sieve) were grown 2 plants to a pot and selected for treatment at the 1st true leaf stage. Test solutions were sprayed onto the foliage by an automated electrostatic plant sprayer equipped with an atomizing spray nozzle. The plants were dried in the sprayer fume hood and then removed from the sprayer. Each pot was placed into perforated plastic bags with a zip closure. About 10 to 11 armyworm larvae were placed into the bag and the bags zipped closed. Test plants were maintained in a growth room at about 25° C. and about 20-40% relative humidity for 4 days, avoiding direct exposure to fluorescent light (24 hour photoperiod) to prevent trapping of heat inside the bags. Mortality and reduced feeding were assessed 4 days after treatment, compared to untreated control plants.

[4] = test system: Orchid thrips (Dichromothrips corbetti); assay: Action on orchid thrips (Dichromothrips corbetti), floral-immersion technique; conditions: 500 ppm; adult thrips, 72 hours after treatment
Protocol: Dichromothrips corbetti adults used for bioassay were obtained from a colony maintained continuously under laboratory conditions. For testing purposes, the test compound is diluted in a 1:1 mixture of acetone:water (vol:vol), plus Kinetic® HV at a rate of 0.01% v/v.
Thrips potency of each compound was evaluated by using a floral-immersion technique. All petals of individual, intact orchid flowers were dipped into treatment solution and allowed to dry in Petri dishes. Treated petals were placed into individual re-sealable plastic along with about 20 adult thrips. All test arenas were held under continuous light and a temperature of about 28° C. for duration of the assay. After 3 days, the numbers of live thrips were counted on each petal. The percent mortality was recorded 72 hours after treatment.

[5] = test system: tobacco budworm (Heliothis virescens); assay: Action on tobacco budworm (Heliothis virescens), microtiter plate diet test; conditions: 800 ppm; egg and larval mortality after 5 days
Protocol: For evaluating control of tobacco budworm (Heliothis virescens) the test unit consisted of 96-well-microtiter plates containing an insect diet and 15-25 H. virescens eggs.
The compounds were formulated using a solution containing 75% v/v water and 25% v/v DMSO. Different concentrations of formulated compounds were sprayed onto the insect diet at 10 μl, using a custom-built micro atomizer, at two replications.
After application, microtiter plates were incubated at about 28+1° C. and about 80+5% relative humidity for 5 days. Egg and larval mortality were then visually assessed.

[6] = test system: yellow fever mosquito (Aedes aegypti); conditions: 800 ppm; larval mortality visually assessed after 2 days
Protocol: For evaluating control of yellow fever mosquito (Aedes aegypti) the test unit consisted of 96-well-microtiter plates containing 200 μl of tap water per well and 5-15 freshly hatched A. aegypti larvae.
The active compounds or mixtures were formulated using a solution containing 75% (v/v) water and 25% (v/v) DMSO. Different concentrations of formulated compounds or mixtures were sprayed onto the insect diet at 2.5 μl using a custom built micro atomizer, at two replications.
For experimental mixtures in these tests identical volumes of both mixing partners at the desired concentrations respectively, were mixed together.
After application, microtiter plates were incubated at 28+1° C., 80+5% RH for 2 days. Larval mortality was then visually assessed.

[7] = test system: Silverleaf whitefly (Bemisia argentifolii) (adults); assay: Action on silverleaf whitefly (Bemisia argentifolii) adults, sprayed cotton plants; conditions: 300 ppm, 3 days after treatment
Protocol: The active compounds were formulated by a Tecan liquid handler in 100% cyclohexanone as a 10,000 ppm solution supplied in tubes. The 10,000 ppm solution was serially diluted in 100% cyclohexanone to make interim solutions. These served as stock solutions for which final dilutions were made by the Tecan in 50% acetone:50% water (v/v) into 5 or 10 ml glass vials. A nonionic surfactant (Kinetic®) was included in the solution at a volume of 0.01% (v/v). The vials were then inserted into an automated electrostatic sprayer equipped with an atomizing nozzle for application to plants/insects.
Cotton plants at the cotyledon stage (one plant per pot) were sprayed by an automated electrostatic plant sprayer equipped with an atomizing spray nozzle. The plants were dried in the sprayer fume hood and then removed from the sprayer. Each pot was placed into a plastic cup and about 10 to 12 whitefly adults (approximately 3-5 days old) were introduced. The insects were collected using an aspirator and a nontoxic Tygon® tubing connected to a barrier pipette tip. The tip, containing the collected insects, was then gently inserted into the soil containing the treated plant, allowing insects to crawl out of the tip to reach the foliage for feeding. Cups were covered with a reusable screened lid. Test plants were maintained in a growth room at about 25° C. and about 20-40% relative humidity for 3 days, avoiding direct exposure to fluorescent light (24 hour photoperiod) to prevent trapping of heat inside the cup. Mortality was assessed 3 days after treatment, compared to untreated control plants.

Row | SMILES | mortality in comparison with untreated controls [1] | mortality in comparison with untreated controls [2] | mortality in comparison with untreated controls [3] | mortality in comparison with untreated controls [4] | mortality in comparison with untreated controls [5] | mortality in comparison with untreated controls [6] | mortality in comparison with untreated controls [7]
1 | CC(C)c1ccccc1N1C(=O)CS/C1=N\N=C\c1ccc(-c2cc(NC(=O)c3ccc(OC(F)(F)F)cc3)n(C)n2)cc1 [Compound C-2, N-[5-[4-[(E)-[(Z)-[3-(2-isopropylphenyl)-4-oxo-thiazolidin-2-ylidene]hydrazono]methyl]phenyl]-2-methyl-pyrazol-3-yl]-4-(trifluoromethoxy) benzamide] | at least 75% | at least 75% | at least 75% | at least 75% | at least 75% | at least 50% | at least 75%
2 | CCn1nc(-c2ccc(/C=N/N3C(=O)CS/C3=N\c3ccccc3C(C)C)cc2)cc1N(C)C(=O)c1ccc(OC(F)(F)F)cc1 [Compound C-36] | at least 75% | at least 75% | at least 75% | at least 75% | at least 75% | at least 50% | at least 75%
3 | CCN(C(=O)c1ccc(OC(F)(F)F)cc1)c1cc(-c2ccc(/C=N/N=C3\SCC(=O)N3c3ccccc3C(C)C)cc2)nn1CC [Compound C-38] | at least 75% | at least 75% | at least 75% | at least 75% | at least 75% | at least 50% | at least 75%
4 | CCN(C(=O)c1ccc(OC(F)(F)F)cc1)c1cc(-c2ccc(/C=N/N3C(=O)CS/C3=N\c3ccccc3C(C)C)cc2)nn1CC [Compound C-39] | at least 75% | at least 75% | at least 75% | at least 75% | at least 75% | at least 50% | at least 75%
5 | CC(C)c1ccccc1N=C1SCC(=O)N1N=Cc1ccc(-c2nc(NC(=O)c3ccc(OC(F)(F)F)cc3)n(C)n2)cc1 [Compound C-65] | at least 75% | at least 75% | at least 75% | at least 75% | at least 75% | at least 50% | at least 75%
